Drawing on patent publication US20100316569A1, this text covers binding for two molecules.

In experiment [1] the target is T1, VAP-1 expressed on CHO cells (CHO-VAP-1) (human) (UniProt Q16853).
T1 sequence (looked up): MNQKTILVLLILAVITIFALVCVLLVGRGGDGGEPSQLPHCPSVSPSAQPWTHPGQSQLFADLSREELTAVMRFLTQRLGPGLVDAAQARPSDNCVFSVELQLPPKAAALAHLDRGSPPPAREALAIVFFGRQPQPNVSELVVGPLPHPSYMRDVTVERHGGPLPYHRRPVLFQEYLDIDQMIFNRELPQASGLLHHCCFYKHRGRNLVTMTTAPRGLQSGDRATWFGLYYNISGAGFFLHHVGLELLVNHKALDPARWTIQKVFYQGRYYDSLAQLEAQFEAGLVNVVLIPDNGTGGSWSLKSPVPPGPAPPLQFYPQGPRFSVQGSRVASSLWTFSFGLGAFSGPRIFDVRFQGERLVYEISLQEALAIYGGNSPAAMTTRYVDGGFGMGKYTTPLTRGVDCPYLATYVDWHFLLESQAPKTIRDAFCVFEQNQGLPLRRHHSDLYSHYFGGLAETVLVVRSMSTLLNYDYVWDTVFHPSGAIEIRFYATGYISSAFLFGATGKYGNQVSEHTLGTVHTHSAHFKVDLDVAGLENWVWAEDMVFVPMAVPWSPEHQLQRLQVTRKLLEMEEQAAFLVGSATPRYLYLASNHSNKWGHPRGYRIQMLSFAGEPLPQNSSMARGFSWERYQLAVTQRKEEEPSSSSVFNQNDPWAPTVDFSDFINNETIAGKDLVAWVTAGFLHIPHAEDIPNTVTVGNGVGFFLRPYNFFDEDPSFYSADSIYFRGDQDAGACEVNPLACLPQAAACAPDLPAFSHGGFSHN
As to the kind of experiment: flow cytometry, competitive staining of CHO-VAP-1 cells.

The target in experiment [2] is T1, VAP-1 expressed on CHO cells (CHO-VAP-1) (human). Description: cell-cell adhesion with sialidase-treated cells, fluorometer.
For experiment [3] the target is unchanged. As to the kind of experiment: cell-cell adhesion, CFSE-labeled CHO-Siglec-10 cells on CHO-VAP-1 monolayers, fluorometer.

These are yes or no findings as the source states them, for the method shown. Some results given as binding are weak or reduced against the parent protein; the word gives no strength.

B1: Siglec-10-Ig-chimera (Fc fusion, UniProt Q96LC7 17-546, looked up, not shown: a dimerising Fc or GST)
chain: MDGRFWIRVQESVMVPEGLCISVPCSFSYPRQDWTGSTPAYGYWFKAVTETTKGAPVATNHQSREVEMSTRGRFQLTGDPAKGNCSLVIRDAQMQDESQYFFRVERGSYVRYNFMNDGFFLKVTALTQKPDVYIPETLEPGQPVTVICVFNWAFEECPPPSFSWTGAALSSQGTKPTTSHFSVLSFTPRPQDHNTDLTCHVDFSRKGVSAQRTVRLRVAYAPRDLVISISRDNTPALEPQPQGNVPYLEAQKGQFLRLLCAADSQPPATLSWVLQNRVLSSSHPWGPRPLGLELPGVKAGDSGRYTCRAENRLGSQQRALDLSVQYPPENLRVMVSQANRTVLENLGNGTSLPVLEGQSLCLVCVTHSSPPARLSWTQRGQVLSPSQPSDPGVLELPRVQVEHEGEFTCHARHPLGSQHVSLSLSVHYSPKLLGPSCSWEAEGLHCSCSSQASPAPSLRWWLGEELLEGNSSQDSFEVTPSSAGPWANSSLSLHGGLSSGLRLRCEAWNVHGAQSGSILQLPDKKGLIST
As for B1, in experiment [1], the binding result is given as “binds”.

B2: Siglec-10 expressed on CHO cells (CHO-Siglec-10) (receptor, UniProt Q96LC7 17-697, looked up)
chain: MDGRFWIRVQESVMVPEGLCISVPCSFSYPRQDWTGSTPAYGYWFKAVTETTKGAPVATNHQSREVEMSTRGRFQLTGDPAKGNCSLVIRDAQMQDESQYFFRVERGSYVRYNFMNDGFFLKVTALTQKPDVYIPETLEPGQPVTVICVFNWAFEECPPPSFSWTGAALSSQGTKPTTSHFSVLSFTPRPQDHNTDLTCHVDFSRKGVSAQRTVRLRVAYAPRDLVISISRDNTPALEPQPQGNVPYLEAQKGQFLRLLCAADSQPPATLSWVLQNRVLSSSHPWGPRPLGLELPGVKAGDSGRYTCRAENRLGSQQRALDLSVQYPPENLRVMVSQANRTVLENLGNGTSLPVLEGQSLCLVCVTHSSPPARLSWTQRGQVLSPSQPSDPGVLELPRVQVEHEGEFTCHARHPLGSQHVSLSLSVHYSPKLLGPSCSWEAEGLHCSCSSQASPAPSLRWWLGEELLEGNSSQDSFEVTPSSAGPWANSSLSLHGGLSSGLRLRCEAWNVHGAQSGSILQLPDKKGLISTAFSNGAFLGIGITALLFLCLALIIMKILPKRRTQTETPRPRFSRHSTILDYINVVPTAGPLAQKRNQKATPNSPRTPLPPGAPSPESKKNQKKQYQLPSFPEPKSSTQAPESQESQEELHYATLNFPGVRPRPEARMPKGTQADYAEVKFQ
In the case of B2, the binding result in experiment [2] and in experiment [3] was “binds” throughout.
